Test results from doi:10.1101/2025.03.24.645131.
Results are given in words; binding and its absence hold for the method and conditions named. In cells and extracts the contact can be indirect. Some results given as binding are weak or reduced against the parent protein; the word gives no strength.

Sequences of proteins named here, by UniProt entry; tags and fusion partners are left off. A change or cut given only in a name is not applied to a line headed by its entry.
UniProt P49407: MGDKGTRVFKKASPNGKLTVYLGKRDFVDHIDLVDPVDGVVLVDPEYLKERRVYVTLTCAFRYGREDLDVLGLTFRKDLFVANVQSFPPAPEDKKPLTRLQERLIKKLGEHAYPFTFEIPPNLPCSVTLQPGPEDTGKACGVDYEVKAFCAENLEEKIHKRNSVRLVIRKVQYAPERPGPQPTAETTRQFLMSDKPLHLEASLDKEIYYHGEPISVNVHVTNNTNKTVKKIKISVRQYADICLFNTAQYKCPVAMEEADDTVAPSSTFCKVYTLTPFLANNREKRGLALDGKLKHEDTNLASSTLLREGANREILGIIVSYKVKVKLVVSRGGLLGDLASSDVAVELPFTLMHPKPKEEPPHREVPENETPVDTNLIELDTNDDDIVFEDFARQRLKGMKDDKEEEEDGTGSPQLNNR

Target: T1, GPR119-LgBiT (UniProt Q8TDV5)
T1 sequence: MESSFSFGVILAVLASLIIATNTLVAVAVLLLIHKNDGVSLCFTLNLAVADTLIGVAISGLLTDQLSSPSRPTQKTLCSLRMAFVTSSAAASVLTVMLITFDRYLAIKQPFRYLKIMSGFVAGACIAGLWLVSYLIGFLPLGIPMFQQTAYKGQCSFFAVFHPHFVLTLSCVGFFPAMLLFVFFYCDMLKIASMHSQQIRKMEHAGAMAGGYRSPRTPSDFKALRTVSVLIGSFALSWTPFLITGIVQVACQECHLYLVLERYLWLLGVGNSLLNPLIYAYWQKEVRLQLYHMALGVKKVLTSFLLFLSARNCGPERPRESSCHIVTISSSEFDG
Test: split reporter

With SmBiT-βarr1 (from UniProt P49407 1-418) the binding was “binds”.

“SmBiT-βarr1_D194A/K195A (from UniProt P49407 1-418)” was tested, and the binding was “binds”.
